This note sets out measurements from PMC10151401.

The experiment has as its target HOP1, Bombyx mori (Bombyx mori). The experiment can be described thus: two-hybrid; Gal4 system, pGBDU-C1 (binding domain) and pGAD-C1 (activation domain) in PJ69-4A strains, mated diploids spotted in 10-fold serial dilutions on SD-LEU-URA and SD-HIS, 3-5 days at 30°C.

Results are given in words; binding and its absence hold for the method and conditions named. A result given as binding can be weak or reduced; the word gives no strength.

Turning to PCH2, Bombyx mori (from UniProt Q1HQ67), the binding result is listed as “binds”.
